Laboratory results taken from publication PMC4206343, “A Novel Aminothiazole KY-05009 with Potential to Inhibit Traf2- and Nck-Interacting Kinase (TNIK) Attenuates TGF-β1-Mediated Epithelial-to-Mesenchymal Transition in Human Lung Adenocarcinoma A549 Cells” (PLoS ONE, 2014).
Results are given in words; binding and its absence hold for the method and conditions named. In cells and extracts the contact can be indirect. Some binding calls cover weakened binding; strength is not graded here.

Protein sequences, listed by entry. Tags and fused reporters are not part of them.
UniProt Q9NQB0: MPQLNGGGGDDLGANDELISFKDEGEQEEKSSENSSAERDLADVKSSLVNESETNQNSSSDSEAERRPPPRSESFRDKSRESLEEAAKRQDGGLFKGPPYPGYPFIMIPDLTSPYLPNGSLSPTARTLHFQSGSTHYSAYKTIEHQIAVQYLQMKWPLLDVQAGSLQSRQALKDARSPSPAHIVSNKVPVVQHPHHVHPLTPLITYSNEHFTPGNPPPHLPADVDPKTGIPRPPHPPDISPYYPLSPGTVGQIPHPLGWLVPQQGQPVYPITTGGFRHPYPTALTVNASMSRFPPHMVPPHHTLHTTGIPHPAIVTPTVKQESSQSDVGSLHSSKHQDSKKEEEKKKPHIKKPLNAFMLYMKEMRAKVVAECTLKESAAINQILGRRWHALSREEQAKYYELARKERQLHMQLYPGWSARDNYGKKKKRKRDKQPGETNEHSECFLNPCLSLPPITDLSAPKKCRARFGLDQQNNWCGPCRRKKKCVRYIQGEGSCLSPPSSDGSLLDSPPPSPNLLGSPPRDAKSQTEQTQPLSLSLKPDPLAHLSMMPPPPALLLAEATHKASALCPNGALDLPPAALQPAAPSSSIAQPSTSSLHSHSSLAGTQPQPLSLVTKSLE
UniProt Q9UKE5: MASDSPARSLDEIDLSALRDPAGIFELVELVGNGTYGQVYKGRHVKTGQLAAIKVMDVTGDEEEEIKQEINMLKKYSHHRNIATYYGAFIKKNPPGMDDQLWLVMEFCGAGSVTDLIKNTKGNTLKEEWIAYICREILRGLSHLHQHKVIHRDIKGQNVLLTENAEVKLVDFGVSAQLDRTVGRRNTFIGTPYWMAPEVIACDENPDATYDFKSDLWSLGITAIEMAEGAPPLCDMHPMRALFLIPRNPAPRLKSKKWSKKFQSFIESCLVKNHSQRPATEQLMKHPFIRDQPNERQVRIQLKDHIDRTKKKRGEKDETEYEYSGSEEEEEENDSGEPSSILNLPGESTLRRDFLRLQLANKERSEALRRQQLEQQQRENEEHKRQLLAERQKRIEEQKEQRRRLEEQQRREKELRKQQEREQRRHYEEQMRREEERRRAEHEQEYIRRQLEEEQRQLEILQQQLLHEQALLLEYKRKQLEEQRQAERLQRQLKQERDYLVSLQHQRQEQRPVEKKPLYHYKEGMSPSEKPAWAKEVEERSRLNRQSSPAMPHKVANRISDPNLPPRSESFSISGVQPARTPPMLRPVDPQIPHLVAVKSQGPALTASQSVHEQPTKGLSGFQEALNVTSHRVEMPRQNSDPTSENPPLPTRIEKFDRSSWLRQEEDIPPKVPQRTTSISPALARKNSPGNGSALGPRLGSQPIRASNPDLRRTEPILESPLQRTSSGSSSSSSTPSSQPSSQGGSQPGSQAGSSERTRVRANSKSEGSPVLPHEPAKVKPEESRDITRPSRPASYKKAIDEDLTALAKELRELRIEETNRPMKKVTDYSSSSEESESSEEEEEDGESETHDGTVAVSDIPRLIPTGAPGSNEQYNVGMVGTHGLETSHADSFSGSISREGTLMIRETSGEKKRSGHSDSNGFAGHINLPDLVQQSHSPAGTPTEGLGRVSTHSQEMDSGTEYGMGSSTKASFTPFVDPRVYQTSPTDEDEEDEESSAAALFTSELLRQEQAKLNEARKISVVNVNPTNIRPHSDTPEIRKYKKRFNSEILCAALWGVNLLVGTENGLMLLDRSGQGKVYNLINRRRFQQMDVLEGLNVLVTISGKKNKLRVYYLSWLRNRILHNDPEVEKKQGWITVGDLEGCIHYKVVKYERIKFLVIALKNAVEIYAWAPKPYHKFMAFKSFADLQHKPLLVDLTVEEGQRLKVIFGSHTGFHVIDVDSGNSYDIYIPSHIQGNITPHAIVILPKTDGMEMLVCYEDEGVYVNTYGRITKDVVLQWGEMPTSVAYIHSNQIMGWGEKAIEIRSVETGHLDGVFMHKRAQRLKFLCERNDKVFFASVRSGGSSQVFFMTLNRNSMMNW

Target: TCF4 (human (endogenous in A549)) (UniProt Q9NQB0)
Experiment: co-IP; endogenous complexes precipitated overnight at 4°C with an anti-TCF4 antibody and Protein A magnetic beads from pre-cleared total lysates of A549 cells (serum-starved 24 h, then TGF-β1 with or without KY-05009 for 48 h); bound proteins detected by Western blot

With “Traf2- and Nck-interacting kinase (from UniProt Q9UKE5 1-1360)” the binding was “binds”.
